Data: patent US20060058227A1, “Hedgehog-related prophylaxis, therapy and diagnosis of gi tract carcinogenesis” (Academisch Ziekenhulis bij de Universiteit van Amsterdam, priority 2002, published 2006)
“Also recorded” adds a separate entry of the source. At least one compound was matched to its structure with a doubt left.

Test system: HT-29 cells
Test: Butyrate induced differentiation of HT-29 cells, with or without cyclopamine (Western blot)
Format: cell-based
Protocol: The distal half of the rat colon was dissected along the longitudinal axis and one half was homogenised and processed for Western blotting as described below. Murine stomach and small intestine were homogenised in lysis buffer (300 mmol/L NaCl, 30 mmol/L Tris, 2 mmol/L MgCl2, 2 mmol/L CaCl2, 1% Triton X-100, pH 7.4, supplemented with 1 tablet of protease inhibitor [Roche] per 50 ml). Protein concentration was measured using the Bradford method. Lysates were diluted 1:3 in protein sample buffer (125 mmol/L Tris/HCl, pH 6.8; 4% sodium dodecyl sulfate; 2% β-mercaptoethanol; 20% glycerol, 1 mg bromophenol blue), and 100-200 μof homogenate was loaded per lane on a sodium dodecyl sulfate-pol-yacrylamide gel electrophoresis gel. After protein separation, the proteins were blotted on to a PVDF membrane (Millipore, Bedford, Mass.). Membranes were blocked with 2% protifar (Nutricia, Zoetermeer, The Netherlands) in phosphate-buffered saline (PBS), supplemented with 0.1% Tween-20 for 1 hour at room temperature. After a brief wash in washing buffer (0.2% protifar; 0.1% Tween-20), membranes were incubated overnight at 4° C. with antibody diluted in washing buffer at the indicated concentration. The next day, membranes were washed 3 times for 5 minutes each and subsequently incubated with a secondary horseradish peroxidase tHRP)-conjugated antibody in a 1:2000 dilution. After enhanced chemoluminescence using Lumilight^+ substrate (Roche, Mannheim, Germany), antibody binding was visualised using a Lumi-Imager (Boehringer Mannheim, Mannheim, Germany).
HT 29 colon cancer cell lines were cultured according to routine procedures in the presence of 10% fetal calf serum (GIBCO). Recombinant Shh (R&D systems) was used at the indicated concentrations; Butyrate (Sigma) was used at a 5 mM concentration.

[1] = HT-29 cultures treated with butyrate alone, 24 hours, Western blot (FIGS. 13a,b)

CCCC(=O)O [butyrate]
E-cadherin protein [1]: induction
Villin protein [1]: induction
cip-1 protein [1]: induction
Ihh protein expression (butyrate-treated HT-29 cells, Western blot (FIG. 1d)): Induction; also recorded: induced
